Measured values reported in article PMC8825819, “Structure of Escherichia coli O157:H7 bacteriophage CBA120 tailspike protein 4 baseplate anchor and tailspike assembly domains (TSP4-N)” (Scientific Reports, 2022).
These are yes or no findings as the source states them, for the method shown.

Target: TSP4 devoid of the AD-XD1 domains, residues 185-1036 (bacteriophage CBA120)
Assay: AUC; sedimentation velocity of single proteins and of mixtures, PBS pH 7.4, 20 °C, absorbance at 280 nm, 30-50 krpm; c(s) by SEDFIT; Kd and koff by Lamm equation modelling with a two-site heterogeneous association model A + B + B = AB + B = ABB (A: TSP4-N335 hexamer, B: partner TSP trimer; two symmetric sites, no cooperativity); both purified

B1: Tailspike protein 2 of bacteriophage CBA120 (natural protein, UniProt G3M190 1-921, looked up)
chain: MTRNVEELFGGVITAPHQIPFTYKSNVGGETFLSLPFYPVTGVVTINGGMQVPLDNFEIEGNTLNLGRALSKGDVVYCLFDKILSPEDTAKGIRIYKFQAVGGETEFTPDFTSYGVQSLYIGGEYKTPEIEYSYDSTTGKVSLQTALSAGVWVVAEMSVKQPNISPAFDRSIQEIARSANVKDSEVIVSTDTISLLDGKKVVYDIATQTSYGLPTIPDGSVISSVSAGKLNYNPGDVQVDLLPLEDSFINVINTLGRNDGAKYIGECHSVADLRNTEPTMDGQRIILKQHTAGTLLGGGVFRALIDGTGKTDNNGTVIKTVGGAAWLRVNADRVNPFMFGALGGSNDDTIPVQSCVDSGKATQLTDAHYVSNIQLKYNTSSIYGSGLHYSRLHQLPSATGNCITIKDTCSLIVLDAFGVYGTGAQQGTSFTAGTTGIYVETPSGLSADYPFHTTADPRRDLCISKVHIAGFDEYGLNIDSGNFSVTTDSLLVNHINQVGVRCATTDWTWTNIQVNTCGKQCLVLDGCGNGRIIGGKFIWANWQPYGTVGQFPGITINNSQNMVINGIEVQDCGGNGIEISESYSISMNGLNTNRNGINANNTFYNIVFNKSDAVINGFVGLNYAANSGSGANSSAGNFQFLSNDCSVTINGVVETGYMGINFIGDNNIINPTNSDLSINGLVNYSKTGLQTMNETPTFDGVSTTPVYVSVPSSVGQVNGLRLSQANKDKLLYSRTAGPEGITMAAVIVPTISGAEVFNFMAIGSGFSDTSNSLHLQLVIDASGKQTIALLLGGDGTTQILSGDLPNDLKLQSGVPYHIAIGAKPGYFWWSILNIQTGKRIRRSFRGAYLAVPFNSIFGLTSSLTFFSDSNAGGDACSGVGAKVYVGMFSSENDYVASRYYNLINPVDPTKLISYRILDSSI
notes: Homotrimer by SV (MWcalc of the trimer 297 kDa); also called TSP2
- binding: no binding
